1 substance from article PMC9344820 can be followed below.

The target of this experiment is T1, PARD3-p.R133* (nonsense variant c.397C>T), Flag-tagged (human) (UniProt Q8TEW0).
T1 sequence: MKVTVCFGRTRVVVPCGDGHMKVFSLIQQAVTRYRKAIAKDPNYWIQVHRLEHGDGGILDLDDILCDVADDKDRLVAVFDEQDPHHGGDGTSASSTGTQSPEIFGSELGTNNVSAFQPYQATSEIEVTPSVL
The experiment is described as follows: co-IP; anti-Flag immunoprecipitation from NP-40 lysates of HEK-293T cells stably expressing the Flag-tagged truncated PARD3; protein A/G beads overnight at 4°C; endogenous PARD3 detected with an antibody against a C-terminal immunogen.

No constants are given. Whether binding was seen depends on the method and setting. Binding seen in cells or lysates may run through a third protein. Some results given as binding are weak or reduced against the parent protein; the word gives no strength. Tags and fused reporters may be left off the sequences shown.

For “endogenous full-length PARD3 (Par-3 Family Cell Polarity Regulator) (from UniProt Q8TEW0-1 1-1356)”, the binding entry is reported as “binds”.
